At least one compound was matched to its structure with a doubt left.
Tested on: NKCC2, ENaC-beta, and NCC proteins in mouse M1 CCD cell line
Assay: Expression of NKCC2, ENaC-beta and NCC in M1 CCD cells after treatment with IL-6 and/or Ruxolitinib (immunoblotting)
Type: cell-based
Conditions: Ruxolitinib 1 μM or 100 μM added 10 min before IL-6, 24 hours, FIGS. 4A-4C
Procedure: The mouse M1 CCD cell line (American Type Culture Collection (ATCC), Cat #CRL-2038) was maintained the cell culture medium containing equal amount of DMEM (Sigma-Aldrich, Cat #D6046) and Han F12 (Sigma-Aldrich, Cat #11765-047), supplemented with 5% Fetal Bovine Serum (FBS), 1% Penicillin-Streptomycin (Thermo Fisher Scientific, Cat #15140-122), 1% Insulin-Transferrin-Selenium (Thermo Fisher Scientific, Cat #51500-056) and 100 nM Dexamethasone (Sigma-Aldrich, Cat #D4902-100MG).
M1 CCD cells were seeded at 1 million/well in 6-well plate in the cell culture medium, and incubated overnight in a 37° C., 5% CO2 incubator on Day 0. The cell culture medium was changed to DMEM/F12 serum-free medium on Day 1 and the cells were incubated overnight in a 37° C., 5% CO2 incubator. On Day 2, the serum-free medium was removed and the cell culture medium was added to each well. Ruxolitinib (Selleckchem, Cat #51378) was added at the final concentration of 1 μM or 100 μM 10 min before the addition of IL-6 (Sigma-Aldrich, Cat #SRP3096-20UG) at the final concentration of 10 ng/mL, 100 ng/mL, or 500 ng/mL. A control well without Ruxolitinib or IL-6 was included. […] The sample were analyzed by immunoblotting using anti-NKCC2 antibody (Millipore, Cat #AB3562P), anti-ENaC-beta antibody (Millipore, Cat #AB3532P), or anti-NCC antibody (Millipore, Cat #AB3553) and the protein expression was quantified. […]

N#CC[C@H](C1CCCC1)n1cc(-c2ncnc3[nH]ccc23)cn1 [Ruxolitinib]
effect of Ruxolitinib on the IL-6 effect on ion transporter proteins (NKCC2, ENaC-beta, NCC): blocked the effect of IL-6 on the ion transporter proteins
